Publication PMC5085626, “Characterization of a β-Adrenergic-Like Octopamine Receptor in the Oriental Fruit Fly, Bactrocera dorsalis (Hendel)” (International Journal of Molecular Sciences, 2016)
Structures can show the parent of a compound that is named as a salt.

Protein sequences, listed by entry. Tags and fused reporters are not part of them.
UniProt A0ABM3J3U4, entry or part of it: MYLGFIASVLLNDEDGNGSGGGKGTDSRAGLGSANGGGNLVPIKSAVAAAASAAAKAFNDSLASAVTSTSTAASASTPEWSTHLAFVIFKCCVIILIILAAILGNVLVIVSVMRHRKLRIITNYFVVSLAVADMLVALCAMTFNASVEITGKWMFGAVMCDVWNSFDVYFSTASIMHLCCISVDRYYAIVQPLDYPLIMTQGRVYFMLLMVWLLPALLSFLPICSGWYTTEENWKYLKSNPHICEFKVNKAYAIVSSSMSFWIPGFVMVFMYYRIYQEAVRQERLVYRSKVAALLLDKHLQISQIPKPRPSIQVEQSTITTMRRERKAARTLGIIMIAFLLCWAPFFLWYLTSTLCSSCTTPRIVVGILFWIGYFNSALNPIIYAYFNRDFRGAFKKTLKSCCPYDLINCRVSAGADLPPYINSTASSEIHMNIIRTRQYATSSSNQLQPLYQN

Molecular target: BdOctβR1 (Bactrocera dorsalis, UniProt A0ABM3J3U4)
Assay: cell-based

- IC50: 484 nM
SMILES: CN1CCN2c3ccccc3Cc3ccccc3C2C1 (stereo not shown) [mianserin, mianserin hydrochloride]
